Laboratory results from article PMC12579238.
Results are given in words; binding and its absence hold for the method and conditions named. In cells and extracts the contact can be indirect. These calls come from enrichment with a bait or labelling near it, and not all partners need be listed. Values belong to the binder of their own block, whether it stands above or below them.

Biological target: T1, CLN7 (human (endogenous in SH-SY5Y)) (UniProt Q8NHS3)
T1 sequence: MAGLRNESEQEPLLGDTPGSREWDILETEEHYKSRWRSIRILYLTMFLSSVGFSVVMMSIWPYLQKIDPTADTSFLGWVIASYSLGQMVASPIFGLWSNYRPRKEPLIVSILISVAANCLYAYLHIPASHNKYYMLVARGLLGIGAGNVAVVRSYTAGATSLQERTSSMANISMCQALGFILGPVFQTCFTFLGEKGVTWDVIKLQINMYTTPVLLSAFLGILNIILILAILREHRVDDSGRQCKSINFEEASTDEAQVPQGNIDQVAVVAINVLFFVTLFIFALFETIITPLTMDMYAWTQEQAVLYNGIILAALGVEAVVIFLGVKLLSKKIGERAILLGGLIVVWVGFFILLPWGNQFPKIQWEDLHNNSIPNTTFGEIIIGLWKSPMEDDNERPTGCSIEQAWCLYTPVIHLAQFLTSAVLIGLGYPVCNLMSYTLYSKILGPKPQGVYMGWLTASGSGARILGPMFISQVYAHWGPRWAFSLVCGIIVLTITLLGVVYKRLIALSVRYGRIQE
Assay: affinity purification with mass spectrometry; endogenous CLN7 immunoprecipitated from 2.5 mg SH-SY5Y lysate with a polyclonal anti-CLN7 antibody raised against L9 (351-421aa, Proteintech) on G-sepharose beads; IgG as non-specific binding control; 4 independent replicates; cells under steady state culture conditions

B2: EXOSC10 (protein, UniProt Q01780 1-885)
chain: MAPPSTREPRVLSATSATKSDGEMVLPGFPDADSFVKFALGSVVAVTKASGGLPQFGDEYDFYRSFPGFQAFCETQGDRLLQCMSRVMQYHGCRSNIKDRSKVTELEDKFDLLVDANDVILERVGILLDEASGVNKNQQPVLPAGLQVPKTVVSSWNRKAAEYGKKAKSETFRLLHAKNIIRPQLKFREKIDNSNTPFLPKIFIKPNAQKPLPQALSKERRERPQDRPEDLDVPPALADFIHQQRTQQVEQDMFAHPYQYELNHFTPADAVLQKPQPQLYRPIEETPCHFISSLDELVELNEKLLNCQEFAVDLEHHSYRSFLGLTCLMQISTRTEDFIIDTLELRSDMYILNESLTDPAIVKVFHGADSDIEWLQKDFGLYVVNMFDTHQAARLLNLGRHSLDHLLKLYCNVDSNKQYQLADWRIRPLPEEMLSYARDDTHYLLYIYDKMRLEMWERGNGQPVQLQVVWQRSRDICLKKFIKPIFTDESYLELYRKQKKHLNTQQLTAFQLLFAWRDKTARREDESYGYVLPNHMMLKIAEELPKEPQGIIACCNPVPPLVRQQINEMHLLIQQAREMPLLKSEVAAGVKKSGPLPSAERLENVLFGPHDCSHAPPDGYPIIPTSGSVPVQKQASLFPDEKEDNLLGTTCLIATAVITLFNEPSAEDSKKGPLTVAQKKAQNIMESFENPFRMFLPSLGHRAPVSQAAKFDPSTKIYEISNRWKLAQVQVQKDSKEAVKKKAAEQTAAREQAKEACKAAAEQAISVRQQVVLENAAKKRERATSDPRTTEQKQEKKRLKISKKPKDPEPPEKEFTPYDYSQSDFKAFAGNSKSKVSSQFDPNKQTPSGKKCIAAKKIKQSVGNKSMSFPTGKSDRGFRYNWPQR
binding: binds

B5: G3BP2 (protein, UniProt Q9UN86 1-482)
chain: MVMEKPSPLLVGREFVRQYYTLLNKAPEYLHRFYGRNSSYVHGGVDASGKPQEAVYGQNDIHHKVLSLNFSECHTKIRHVDAHATLSDGVVVQVMGLLSNSGQPERKFMQTFVLAPEGSVPNKFYVHNDMFRYEDEVFGDSEPELDEESEDEVEEEQEERQPSPEPVQENANSGYYEAHPVTNGIEEPLEESSHEPEPEPESETKTEELKPQVEEKNLEELEEKSTTPPPAEPVSLPQEPPKAFSWASVTSKNLPPSGTVSSSGIPPHVKAPVSQPRVEAKPEVQSQPPRVREQRPRERPGFPPRGPRPGRGDMEQNDSDNRRIIRYPDSHQLFVGNLPHDIDENELKEFFMSFGNVVELRINTKGVGGKLPNFGFVVFDDSEPVQRILIAKPIMFRGEVRLNVEEKKTRAARERETRGGGDDRRDIRRNDRGPGGPRGIVGGGMMRDRDGRGPPPRGGMAQKLGSGRGTGQMEGRFTGQRR
binding: binds

B6: DNAJC2 (protein, UniProt Q99543 1-621)
chain: MLLLPSAADGRGTAITHALTSASTLCQVEPVGRWFEAFVKRRNRNASASFQELEDKKELSEESEDEELQLEEFPMLKTLDPKDWKNQDHYAVLGLGHVRYKATQRQIKAAHKAMVLKHHPDKRKAAGEPIKEGDNDYFTCITKAYEMLSDPVKRRAFNSVDPTFDNSVPSKSEAKDNFFEVFTPVFERNSRWSNKKNVPKLGDMNSSFEDVDIFYSFWYNFDSWREFSYLDEEEKEKAECRDERRWIEKQNRATRAQRKKEEMNRIRTLVDNAYSCDPRIKKFKEEEKAKKEAEKKAKAEAKRKEQEAKEKQRQAELEAARLAKEKEEEEVRQQALLAKKEKDIQKKAIKKERQKLRNSCKTWNHFSDNEAERVKMMEEVEKLCDRLELASLQCLNETLTSCTKEVGKAALEKQIEEINEQIRKEKEEAEARMRQASKNTEKSTGGGGNGSKNWSEDDLQLLIKAVNLFPAGTNSRWEVIANYMNIHSSSGVKRTAKDVIGKAKSLQKLDPHQKDDINKKAFDKFKKEHGVVPQADNATPSERFEGPYTDFTPWTTEEQKLLEQALKTYPVNTPERWEKIAEAVPGRTKKDCMKRYKELVEMVKAKKAAQEQVLNASRAKK
binding: binds

Next, values leading:

binding: binds
B1: GTPBP1 (protein, UniProt O00178 1-669)
chain: MATERSRSAMDSPVPASMFAPEPSSPGAARAAAAAARLHGGFDSDCSEDGEALNGEPELDLTSKLVLVSPTSEQYDSLLRQMWERMDEGCGETIYVIGQGSDGTEYGLSEADMEASYATVKSMAEQIEADVILLRERQEAGGRVRDYLVRKRVGDNDFLEVRVAVVGNVDAGKSTLLGVLTHGELDNGRGFARQKLFRHKHEIESGRTSSVGNDILGFDSEGNVVNKPDSHGGSLEWTKICEKSTKVITFIDLAGHEKYLKTTVFGMTGHLPDFCMLMVGSNAGIVGMTKEHLGLALALNVPVFVVVTKIDMCPANILQETLKLLQRLLKSPGCRKIPVLVQSKDDVIVTASNFSSERMCPIFQISNVTGENLDLLKMFLNLLSPRTSYREEEPAEFQIDDTYSVPGVGTVVSGTTLRGLIKLNDTLLLGPDPLGNFLSIAVKSIHRKRMPVKEVRGGQTASFALKKIKRSSIRKGMVMVSPRLNPQASWEFEAEILVLHHPTTISPRYQAMVHCGSIRQTATILSMDKDCLRTGDKATVHFRFIKTPEYLHIDQRLVFREGRTKAVGTITKLLQTTNNSPMNSKPQQIKMQSTKKGPLTKRDEGGPSGGPAVGAPPPGDEASSVGAGQPAASSNLQPQPKPSSGGRRRGGQRHKVKSQGACVTPASGC

binding: binds
B3: GIT2 (protein, UniProt Q14161 1-759)
chain: MSKRLRSSEVCADCSGPDPSWASVNRGTFLCDECCSVHRSLGRHISQVRHLKHTPWPPTLLQMVETLYNNGANSIWEHSLLDPASIMSGRRKANPQDKVHPNKAEFIRAKYQMLAFVHRLPCRDDDSVTAKDLSKQLHSSVRTGNLETCLRLLSLGAQANFFHPEKGNTPLHVASKAGQILQAELLAVYGADPGTQDSSGKTPVDYARQGGHHELAERLVEIQYELTDRLAFYLCGRKPDHKNGQHFIIPQMADSSLDLSELAKAAKKKLQSLSNHLFEELAMDVYDEVDRRETDAVWLATQNHSALVTETTVVPFLPVNPEYSSTRNQGRQKLARFNAHEFATLVIDILSDAKRRQQGSSLSGSKDNVELILKTINNQHSVESQDNDQPDYDSVASDEDTDLETTASKTNRQKSLDSDLSDGPVTVQEFMEVKNALVASEAKIQQLMKVNNNLSDELRIMQKKLQTLQSENSNLRKQATTNVYQVQTGSEYTDTSNHSSLKRRPSARGSRPMSMYETGSGQKPYLPMGEASRPEESRMRLQPFPAHIGRSALVTSSSSLPSFPSTLSWSRDESARRASRLEKQNSTPESDYDNTPNDMEPDGMGSSRKGRQRSMVWPGDGLVPDTAEPHVAPSPTLPSTEDVIRKTEQITKNIQELLRAAQENKHDSYIPCSERIHVAVTEMAALFPKKPKSDMVRTSLRLLTSSAYRLQSECKKTLPGDPGSPTDVQLVTQQVIQCAYDIAKAAKQLVTITTKENNN

binding: binds
B4: GNL3 (protein, UniProt Q9BVP2 1-549)
chain: MKRPKLKKASKRMTCHKRYKIQKKVREHHRKLRKEAKKRGHKKPRKDPGVPNSAPFKEALLREAELRKQRLEELKQQQKLDRQKELEKKRKLETNPDIKPSNVEPMEKEFGLCKTENKAKSGKQNSKKLYCQELKKVIEASDVVLEVLDARDPLGCRCPQVEEAIVQSGQKKLVLILNKSDLVPKENLESWLNYLKKELPTVVFRASTKPKDKGKITKRVKAKKNAAPFRSEVCFGKEGLWKLLGGFQETCSKAIRVGVIGFPNVGKSSIINSLKQEQMCNVGVSMGLTRSMQVVPLDKQITIIDSPSFIVSPLNSSSALALRSPASIEVVKPMEAASAILSQADARQVVLKYTVPGYRNSLEFFTVLAQRRGMHQKGGIPNVEGAAKLLWSEWTGASLAYYCHPPTSWTPPPYFNESIVVDMKSGFNLEELEKNNAQSIRAIKGPHLANSILFQSSGLTNGIIEEKDIHEELPKRKERKQEEREDDKDSDQETVDEEVDENSSGMFAAEETGEALSEETTAGEQSTRSFILDKIIEEDDAYDFSTDYV

binding: binds
B7: FAM120C (protein, UniProt Q9NX05 1-1096)
chain: MGVQGFQEFLEKRCPGAVVPVDLLKLARTVSRQQQQQHLHRQLPPTAALAPGAPRAARGSVPLQPPLPPAALGAYSGGAGPTRHHHPAHHFHHHGQAQPGLHPPLPPPPPPQLPGARVLVDAGSALPRLYGGYQTDWVCGGQWNAMLGYLSALCQACAYPGGDGLELVVMFPGGLGKDRLAEWGRRCQAERQTAQLIVGHVGNKGTPPPRAWFLPPACLSHCVRLALIRFRVKVFQSLEDHHLEVVAFFRENGFHGLLAHDSEYALYNIPSYYSSHALKLSWNGKNLTTNQFLMQEVAKQLGLKRMNFPIFAALLGNHILPDEDLAAFHWSLLGPEHPLASLKVRAHQLVLPPCDVVIKAVSEYVSSIKDPSNLDVVGKDVFKQSQSRTEDKIERFKKAVEYYSVTTKLSSLPVGPSFLGFRNNRLGNPPLPRNQVGTISAGKPMFSHQVPQKVKYPPPFPVGPNSSLLFSSHALGESHAFSEDPMLQNSPFANWAVSYDSSASQFPNYLPSKASPPLGPDSSHSSSSDGDEPNGASSDHITEAFHHQPEWGNPNRDRGSWAQPVDTGVSEASLGDGEPHIPSLLSMSTRNHMDITIPPLPPVAPEVLRVAEHRHRRGLMYPYIYHVLTKGEIKIPVCIEDECNMELPPAALLFRSARQYVYGVLFSLAETQRKMERLAMRRRLPVEVPSVILKEWSAYKGKSPQTPELVSALTFREWTCPNLKKLWLGKAVEDKNRRMRAFLACMKSDTPSMLNPANVPTHLLLMCCVLRYMVQWPGGRILHRHELDTFLAQAVSTQLYEPDRLQELKIEKLDARGIQLAALFMSGVDTALFANDACGQPVPWEHCCPWIYFDGKLFQSKLIKAGRERVSLVELCDGQADLATKVEKMRQSILEGVNMNHPPPSALLPSPTFVPPMVPSLYPVSLYSRAMGSMPLPPQGRSRGFAGLHPIPPQGGKLEIAGMVVGQWAGSRSSRGRGSFGMQVVSVGGPGKGHGKEQTGRGSKGHKKGNKQGSSDGVSKSLELHQGRSRSQVNGNSGALIKEEKSDHRLPAPSQCALSRDSNECNNGNRYLPMNNREKNHLQEQKLETVAQRKED
